Experimental data: publication PMC4593006
These are yes or no findings as the source states them, for the method shown. In cells and extracts the contact can be indirect. Some results given as binding are weak or reduced against the parent protein; the word gives no strength. Sequences can lack the tags named with a protein.

The chains behind the UniProt entries cited, without tags or fusion partners. Where a name states a change or a piece, a line headed by the entry shows the natural chain unless it says otherwise.
UniProt Q9HAU4: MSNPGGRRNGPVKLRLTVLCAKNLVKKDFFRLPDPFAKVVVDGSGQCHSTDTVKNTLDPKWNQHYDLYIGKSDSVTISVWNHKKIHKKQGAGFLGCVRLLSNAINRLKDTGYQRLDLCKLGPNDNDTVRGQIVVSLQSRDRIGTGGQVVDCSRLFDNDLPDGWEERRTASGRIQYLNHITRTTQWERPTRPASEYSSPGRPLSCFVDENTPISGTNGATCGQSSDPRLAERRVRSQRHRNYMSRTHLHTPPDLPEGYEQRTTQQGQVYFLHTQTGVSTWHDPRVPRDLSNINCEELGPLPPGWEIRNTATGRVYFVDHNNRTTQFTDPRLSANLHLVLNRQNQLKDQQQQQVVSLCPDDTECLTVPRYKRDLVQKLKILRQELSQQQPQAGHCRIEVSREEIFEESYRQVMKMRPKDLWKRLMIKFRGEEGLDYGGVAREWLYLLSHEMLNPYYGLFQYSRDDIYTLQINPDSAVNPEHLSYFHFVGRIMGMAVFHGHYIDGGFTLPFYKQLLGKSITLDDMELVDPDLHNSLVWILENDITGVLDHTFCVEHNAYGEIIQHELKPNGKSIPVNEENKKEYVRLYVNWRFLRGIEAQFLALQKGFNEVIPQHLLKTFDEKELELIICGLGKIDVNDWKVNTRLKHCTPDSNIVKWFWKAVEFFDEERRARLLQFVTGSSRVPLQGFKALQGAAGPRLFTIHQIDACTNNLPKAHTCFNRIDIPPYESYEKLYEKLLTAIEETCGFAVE
UniProt O15105: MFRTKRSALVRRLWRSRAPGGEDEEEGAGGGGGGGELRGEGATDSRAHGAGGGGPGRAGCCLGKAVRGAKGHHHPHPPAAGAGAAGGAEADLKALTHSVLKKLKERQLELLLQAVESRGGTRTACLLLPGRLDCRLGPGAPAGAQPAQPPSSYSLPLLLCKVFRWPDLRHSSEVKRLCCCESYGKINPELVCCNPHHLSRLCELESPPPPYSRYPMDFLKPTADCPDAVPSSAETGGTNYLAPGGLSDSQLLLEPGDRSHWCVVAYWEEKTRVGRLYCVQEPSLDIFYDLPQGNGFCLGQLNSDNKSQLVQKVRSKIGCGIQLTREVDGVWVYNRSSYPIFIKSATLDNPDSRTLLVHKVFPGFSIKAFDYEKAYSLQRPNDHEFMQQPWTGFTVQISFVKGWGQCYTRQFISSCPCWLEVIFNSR

B1: Flag-USP15 (enzyme, UniProt Q9Y4E8-2 1-952)
chain: MAEGGAADLDTQRSDIATLLKTSLRKGDTWYLVDSRWFKQWKKYVGFDSWDKYQMGDQNVYPGPIDNSGLLKDGDAQSLKEHLIDELDYILLPTEGWNKLVSWYTLMEGQEPIARKVVEQGMFVKHCKVEVYLTELKLCENGNMNNVVTRRFSKADTIDTIEKEIRKIFSIPDEKETRLWNKYMSNTFEPLNKPDSTIQDAGLYQGQVLVIEQKNEDGTWPRGPSTPNVKNSNYCLPSYTAYKNYDYSEPGRNNEQPGLCGLSNLGNTCFMNSAIQCLSNTPPLTEYFLNDKYQEELNFDNPLGMRGEIAKSYAELIKQMWSGKFSYVTPRAFKTQVGRFAPQFSGYQQQDCQELLAFLLDGLHEDLNRIRKKPYIQLKDADGRPDKVVAEEAWENHLKRNDSIIVDIFHGLFKSTLVCPECAKISVTFDPFCYLTLPLPMKKERTLEVYLVRMDPLTKPMQYKVVVPKIGNILDLCTALSALSGIPADKMIVTDIYNHRFHRIFAMDENLSSIMERDDIYVFEININRTEDTEHVIIPVCLREKFRHSSYTHHTGSSLFGQPFLMAVPRNNTEDKLYNLLLLRMCRYVKISTETEETEGSLHCCKDQNINGNGPNGIHEEGSPSEMETDEPDDESSQDQELPSENENSQSEDSVGGDNDSENGLCTEDTCKGQLTGHKKRLFTFQFNNLGNTDINYIKDDTRHIRFDDRQLRLDERSFLALDWDPDLKKRYFDENAAEDFEKHESVEYKPPKKPFVKLKDCIELFTTKEKLGAEDPWYCPNCKEHQQATKKLDLWSLPPVLVVHLKRFSYSRYMRDKLDTLVDFPINDLDMSEFLINPNAGPCRYNLIAVSNHYGGMGGGHYTAFAKNKDDGKWYYFDDSSVSTASEDQIVSKAAYVLFYQRQDTFSGTGFFPLDRETKGASAATGIPLESDEDSNDNDNDIENENCMHTN

How the values were obtained:
Myc-SMURF2 (K734R) = Myc-SMURF2 (K734R) (UniProt Q9HAU4); test: co-IP; immunoprecipitation with anti-Myc antibodies from lysates of co-transfected HEK293T cells; ELB buffer (250 mM NaCl, 0.5% Nonidet P-40, 50 mM HEPES pH 7.3), overnight at 4 °C, protein A or G sepharose; immunoblot
Myc-SMURF2 = Myc-SMURF2 (UniProt Q9HAU4); test: as above

Molecule	binding (Myc-SMURF2 (K734R))	binding (Myc-SMURF2)
Flag-SMAD7 (from UniProt O15105 1-426)	binds	binds
B1	binds	binds
